No constants are given. Whether binding was seen depends on the method and setting. Binding seen in cells or lysates may run through a third protein. Some binding calls cover weakened binding; strength is not graded here.
Legend:
[1] = target: IQGAP1 (IQ Motif Containing GTPase Activating Protein 1) (human (endogenous in NUGC4 and MKN45)) (UniProt P46940); experiment: co-IP
[2] = target: IQGAP1 (IQ Motif Containing GTPase Activating Protein 1) (human (endogenous in NUGC4 and MKN45)) (UniProt P46940); experiment: co-IP; remark: listed apart in the source
[3] = target: IQGAP1 (IQ Motif Containing GTPase Activating Protein 1) (human (endogenous in NUGC4 and MKN45)) (UniProt P46940); experiment: co-IP; remark: listed apart in the source
[4] = target: IQGAP1 (IQ Motif Containing GTPase Activating Protein 1) (human (endogenous in NUGC4 and MKN45)) (UniProt P46940); experiment: proximity ligation

The chains behind the UniProt entries cited, without tags or fusion partners.
UniProt P46940: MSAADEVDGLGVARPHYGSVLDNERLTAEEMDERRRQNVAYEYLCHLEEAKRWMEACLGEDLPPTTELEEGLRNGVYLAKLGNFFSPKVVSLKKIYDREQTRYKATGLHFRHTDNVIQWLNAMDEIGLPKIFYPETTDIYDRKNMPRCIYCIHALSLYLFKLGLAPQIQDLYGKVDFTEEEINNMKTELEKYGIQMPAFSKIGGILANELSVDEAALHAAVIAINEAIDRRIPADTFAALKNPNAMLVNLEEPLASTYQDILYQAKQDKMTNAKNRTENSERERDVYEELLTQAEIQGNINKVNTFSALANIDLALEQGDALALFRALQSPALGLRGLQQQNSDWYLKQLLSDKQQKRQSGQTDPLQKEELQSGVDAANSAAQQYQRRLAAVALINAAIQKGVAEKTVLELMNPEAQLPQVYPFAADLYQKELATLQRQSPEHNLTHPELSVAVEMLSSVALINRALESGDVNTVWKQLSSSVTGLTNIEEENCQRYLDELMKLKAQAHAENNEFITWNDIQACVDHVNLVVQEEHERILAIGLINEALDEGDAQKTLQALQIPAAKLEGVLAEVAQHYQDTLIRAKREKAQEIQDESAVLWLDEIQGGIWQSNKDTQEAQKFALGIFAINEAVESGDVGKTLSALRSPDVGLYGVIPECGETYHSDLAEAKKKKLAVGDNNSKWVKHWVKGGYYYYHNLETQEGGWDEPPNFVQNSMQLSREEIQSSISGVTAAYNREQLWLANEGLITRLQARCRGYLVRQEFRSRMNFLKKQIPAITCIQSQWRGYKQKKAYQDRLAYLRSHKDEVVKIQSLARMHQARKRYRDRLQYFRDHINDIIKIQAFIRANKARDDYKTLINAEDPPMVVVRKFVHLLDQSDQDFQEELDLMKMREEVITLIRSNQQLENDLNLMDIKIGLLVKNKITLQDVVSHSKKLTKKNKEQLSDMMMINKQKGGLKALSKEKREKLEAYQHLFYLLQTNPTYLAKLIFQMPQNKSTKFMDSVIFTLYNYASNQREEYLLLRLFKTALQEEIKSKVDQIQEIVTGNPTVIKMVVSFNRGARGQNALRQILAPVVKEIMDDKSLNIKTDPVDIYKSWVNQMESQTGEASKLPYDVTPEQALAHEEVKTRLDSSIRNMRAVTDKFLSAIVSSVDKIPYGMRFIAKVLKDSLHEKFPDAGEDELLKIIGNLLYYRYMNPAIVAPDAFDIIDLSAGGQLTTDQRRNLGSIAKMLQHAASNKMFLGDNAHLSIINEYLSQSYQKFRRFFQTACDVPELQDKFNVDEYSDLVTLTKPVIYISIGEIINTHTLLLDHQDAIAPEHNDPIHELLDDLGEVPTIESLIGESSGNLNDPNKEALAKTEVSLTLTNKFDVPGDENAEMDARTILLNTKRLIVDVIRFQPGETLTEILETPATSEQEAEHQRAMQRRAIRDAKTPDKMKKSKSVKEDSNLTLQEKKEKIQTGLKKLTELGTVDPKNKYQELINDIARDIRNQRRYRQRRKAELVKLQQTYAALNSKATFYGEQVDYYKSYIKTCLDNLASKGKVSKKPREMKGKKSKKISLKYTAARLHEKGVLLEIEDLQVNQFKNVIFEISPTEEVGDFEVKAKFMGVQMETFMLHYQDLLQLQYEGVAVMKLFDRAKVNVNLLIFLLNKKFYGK
UniProt Q07955: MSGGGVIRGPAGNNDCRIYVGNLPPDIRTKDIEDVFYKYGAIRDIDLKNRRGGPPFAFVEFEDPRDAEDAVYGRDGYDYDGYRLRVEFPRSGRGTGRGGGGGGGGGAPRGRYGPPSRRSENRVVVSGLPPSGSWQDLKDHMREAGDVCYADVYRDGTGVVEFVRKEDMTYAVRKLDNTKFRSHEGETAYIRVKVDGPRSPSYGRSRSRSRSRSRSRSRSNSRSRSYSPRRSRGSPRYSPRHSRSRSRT
UniProt Q16630: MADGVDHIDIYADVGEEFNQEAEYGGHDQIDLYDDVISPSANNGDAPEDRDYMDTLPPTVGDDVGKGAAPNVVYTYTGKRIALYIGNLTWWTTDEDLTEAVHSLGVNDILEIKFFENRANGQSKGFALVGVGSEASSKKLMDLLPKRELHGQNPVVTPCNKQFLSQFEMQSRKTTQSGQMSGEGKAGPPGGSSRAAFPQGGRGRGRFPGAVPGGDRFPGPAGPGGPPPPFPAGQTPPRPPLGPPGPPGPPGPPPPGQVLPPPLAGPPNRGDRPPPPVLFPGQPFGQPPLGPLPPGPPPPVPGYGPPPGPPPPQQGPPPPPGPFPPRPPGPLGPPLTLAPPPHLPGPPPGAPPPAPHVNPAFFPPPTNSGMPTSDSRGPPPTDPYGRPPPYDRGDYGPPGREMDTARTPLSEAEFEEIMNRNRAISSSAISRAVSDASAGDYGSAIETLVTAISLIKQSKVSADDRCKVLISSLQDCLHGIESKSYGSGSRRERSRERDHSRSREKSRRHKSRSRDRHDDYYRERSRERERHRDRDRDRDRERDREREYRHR
UniProt Q92841: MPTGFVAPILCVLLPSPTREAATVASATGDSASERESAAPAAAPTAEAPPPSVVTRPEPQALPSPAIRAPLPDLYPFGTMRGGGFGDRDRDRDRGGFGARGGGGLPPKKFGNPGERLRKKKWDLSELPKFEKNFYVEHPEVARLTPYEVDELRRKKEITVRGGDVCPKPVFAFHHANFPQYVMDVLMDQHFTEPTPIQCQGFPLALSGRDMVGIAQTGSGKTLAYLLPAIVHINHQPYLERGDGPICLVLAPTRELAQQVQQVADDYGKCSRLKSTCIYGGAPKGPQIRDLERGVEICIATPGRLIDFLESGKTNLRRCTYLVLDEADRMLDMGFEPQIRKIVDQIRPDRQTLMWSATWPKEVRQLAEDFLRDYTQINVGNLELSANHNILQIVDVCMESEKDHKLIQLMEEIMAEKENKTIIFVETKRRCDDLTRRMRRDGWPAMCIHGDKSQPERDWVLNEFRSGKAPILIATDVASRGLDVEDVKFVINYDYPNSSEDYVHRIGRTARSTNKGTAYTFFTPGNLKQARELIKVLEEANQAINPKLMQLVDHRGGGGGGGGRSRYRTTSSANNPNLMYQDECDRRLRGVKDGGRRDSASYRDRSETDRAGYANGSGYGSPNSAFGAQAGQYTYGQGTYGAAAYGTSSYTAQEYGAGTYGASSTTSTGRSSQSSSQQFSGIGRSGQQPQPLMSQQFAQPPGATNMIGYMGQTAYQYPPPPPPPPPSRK

Molecule: SRSF1 (from UniProt Q07955 1-248)
- binding [1]: binds

Molecule: CPSF6 (from UniProt Q16630 1-551)
- binding [1]: binds

Molecule: DDX17 (from UniProt Q92841 1-729)
- binding [1]: binds

B1: heterogeneous nuclear ribonucleoprotein M (hnRNPM) (protein, UniProt P52272 1-730)
chain: MAAGVEAAAEVAATEIKMEEESGAPGVPSGNGAPGPKGEGERPAQNEKRKEKNIKRGGNRFEPYANPTKRYRAFITNIPFDVKWQSLKDLVKEKVGEVTYVELLMDAEGKSRGCAVVEFKMEESMKKAAEVLNKHSLSGRPLKVKEDPDGEHARRAMQKVMATTGGMGMGPGGPGMITIPPSILNNPNIPNEIIHALQAGRLGSTVFVANLDYKVGWKKLKEVFSMAGVVVRADILEDKDGKSRGIGTVTFEQSIEAVQAISMFNGQLLFDRPMHVKMDERALPKGDFFPPERPQQLPHGLGGIGMGLGPGGQPIDANHLNKGIGMGNIGPAGMGMEGIGFGINKMGGMEGPFGGGMENMGRFGSGMNMGRINEILSNALKRGEIIAKQGGGGGGGSVPGIERMGPGIDRLGGAGMERMGAGLGHGMDRVGSEIERMGLVMDRMGSVERMGSGIERMGPLGLDHMASSIERMGQTMERIGSGVERMGAGMGFGLERMAAPIDRVGQTIERMGSGVERMGPAIERMGLSMERMVPAGMGAGLERMGPVMDRMATGLERMGANNLERMGLERMGANSLERMGLERMGANSLERMGPAMGPALGAGIERMGLAMGGGGGASFDRAIEMERGNFGGSFAGSFGGAGGHAPGVARKACQIFVRNLPFDFTWKMLKDKFNECGHVLYADIKMENGKSKGCGVVKFESPEVAERACRMMNGMKLSGREIDVRIDRNA
- binding [2]: binds
- binding [3]: binds
- binding [1]: binds
- binding [4]: binds

B2: hnRNPL (protein, UniProt P14866 1-589)
chain: MSRRLLPRAEKRRRRLEQRQQPDEQRRRSGAMVKMAAAGGGGGGGRYYGGGSEGGRAPKRLKTDNAGDQHGGGGGGGGGAGAAGGGGGGENYDDPHKTPASPVVHIRGLIDGVVEADLVEALQEFGPISYVVVMPKKRQALVEFEDVLGACNAVNYAADNQIYIAGHPAFVNYSTSQKISRPGDSDDSRSVNSVLLFTILNPIYSITTDVLYTICNPCGPVQRIVIFRKNGVQAMVEFDSVQSAQRAKASLNGADIYSGCCTLKIEYAKPTRLNVFKNDQDTWDYTNPNLSGQGDPGSNPNKRQRQPPLLGDHPAEYGGPHGGYHSHYHDEGYGPPPPHYEGRRMGPPVGGHRRGPSRYGPQYGHPPPPPPPPEYGPHADSPVLMVYGLDQSKMNCDRVFNVFCLYGNVEKVKFMKSKPGAAMVEMADGYAVDRAITHLNNNFMFGQKLNVCVSKQPAIMPGQSYGLEDGSCSYKDFSESRNNRFSTPEQAAKNRIQHPSNVLHFFNAPLEVTEENFFEICDELGVKRPSSVKVFSGKSERSSSGLLEWESKSDALETLGFLNHYQMKNPNGPYPYTLKLCFSTAQHAS
- binding [3]: binds
- binding [1]: binds

B3: ILF3/NF90 (protein, UniProt Q12906 1-894)
chain: MRPMRIFVNDDRHVMAKHSSVYPTQEELEAVQNMVSHTERALKAVSDWIDEQEKGSSEQAESDNMDVPPEDDSKEGAGEQKTEHMTRTLRGVMRVGLVAKGLLLKGDLDLELVLLCKEKPTTALLDKVADNLAIQLAAVTEDKYEILQSVDDAAIVIKNTKEPPLSLTIHLTSPVVREEMEKVLAGETLSVNDPPDVLDRQKCLAALASLRHAKWFQARANGLKSCVIVIRVLRDLCTRVPTWGPLRGWPLELLCEKSIGTANRPMGAGEALRRVLECLASGIVMPDGSGIYDPCEKEATDAIGHLDRQQREDITQSAQHALRLAAFGQLHKVLGMDPLPSKMPKKPKNENPVDYTVQIPPSTTYAITPMKRPMEEDGEEKSPSKKKKKIQKKEEKAEPPQAMNALMRLNQLKPGLQYKLVSQTGPVHAPIFTMSVEVDGNSFEASGPSKKTAKLHVAVKVLQDMGLPTGAEGRDSSKGEDSAEETEAKPAVVAPAPVVEAVSTPSAAFPSDATAEQGPILTKHGKNPVMELNEKRRGLKYELISETGGSHDKRFVMEVEVDGQKFQGAGSNKKVAKAYAALAALEKLFPDTPLALDANKKKRAPVPVRGGPKFAAKPHNPGFGMGGPMHNEVPPPPNLRGRGRGGSIRGRGRGRGFGGANHGGYMNAGAGYGSYGYGGNSATAGYSQFYSNGGHSGNASGGGGGGGGGSSGYGSYYQGDNYNSPVPPKHAGKKQPHGGQQKPSYGSGYQSHQGQQQSYNQSPYSNYGPPQGKQKGYNHGQGSYSYSNSYNSPGGGGGSDYNYESKFNYSGSGGRSGGNSYGSGGASYNPGSHGGYGGGSGGGSSYQGKQGGYSQSNYNSPGSGQNYSGPPSSYQSSQGGYGRNADHSMNYQYR
- binding [1]: binds

From publication doi:10.1101/2020.05.11.089656
